Assay results reported in article doi:10.1101/2024.07.11.603088.
Residue numbers refer to the chain shown, from its start. Results are given in words; binding and its absence hold for the method and conditions named. Binding seen in cells or lysates may run through a third protein. Some entries that bind do so weakly or less than the wild type. For part of these data: Sequences can lack the tags named with a protein.

Sequences of proteins named here, by UniProt entry; tags and fusion partners are left off.
UniProt O08900: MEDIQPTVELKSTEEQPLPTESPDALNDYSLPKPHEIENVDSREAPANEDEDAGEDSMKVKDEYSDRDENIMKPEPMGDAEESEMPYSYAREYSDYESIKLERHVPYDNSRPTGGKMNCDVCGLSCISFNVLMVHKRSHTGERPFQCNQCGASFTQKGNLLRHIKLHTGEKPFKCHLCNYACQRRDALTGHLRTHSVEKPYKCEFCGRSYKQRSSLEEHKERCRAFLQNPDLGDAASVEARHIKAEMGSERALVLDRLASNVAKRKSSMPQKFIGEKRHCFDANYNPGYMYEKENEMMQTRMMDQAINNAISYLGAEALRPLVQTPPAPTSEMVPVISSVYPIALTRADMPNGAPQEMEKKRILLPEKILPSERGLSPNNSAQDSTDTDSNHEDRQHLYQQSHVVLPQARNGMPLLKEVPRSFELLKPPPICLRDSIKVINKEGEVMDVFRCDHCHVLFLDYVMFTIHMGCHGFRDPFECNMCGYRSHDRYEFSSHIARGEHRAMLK
UniProt Q03267: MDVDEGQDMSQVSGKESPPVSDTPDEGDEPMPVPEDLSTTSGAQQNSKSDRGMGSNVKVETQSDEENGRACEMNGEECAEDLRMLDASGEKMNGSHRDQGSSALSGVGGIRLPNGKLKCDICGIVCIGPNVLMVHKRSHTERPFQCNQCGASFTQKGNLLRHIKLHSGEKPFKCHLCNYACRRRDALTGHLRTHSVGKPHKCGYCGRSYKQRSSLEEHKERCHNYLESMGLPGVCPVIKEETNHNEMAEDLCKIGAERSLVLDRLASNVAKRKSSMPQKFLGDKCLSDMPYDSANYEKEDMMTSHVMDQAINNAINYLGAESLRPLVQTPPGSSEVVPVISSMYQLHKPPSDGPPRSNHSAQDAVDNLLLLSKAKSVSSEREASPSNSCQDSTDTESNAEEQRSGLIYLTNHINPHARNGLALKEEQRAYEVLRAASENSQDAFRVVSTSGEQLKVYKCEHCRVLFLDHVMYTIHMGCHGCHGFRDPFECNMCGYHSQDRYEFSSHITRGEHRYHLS
UniProt Q9UKT9: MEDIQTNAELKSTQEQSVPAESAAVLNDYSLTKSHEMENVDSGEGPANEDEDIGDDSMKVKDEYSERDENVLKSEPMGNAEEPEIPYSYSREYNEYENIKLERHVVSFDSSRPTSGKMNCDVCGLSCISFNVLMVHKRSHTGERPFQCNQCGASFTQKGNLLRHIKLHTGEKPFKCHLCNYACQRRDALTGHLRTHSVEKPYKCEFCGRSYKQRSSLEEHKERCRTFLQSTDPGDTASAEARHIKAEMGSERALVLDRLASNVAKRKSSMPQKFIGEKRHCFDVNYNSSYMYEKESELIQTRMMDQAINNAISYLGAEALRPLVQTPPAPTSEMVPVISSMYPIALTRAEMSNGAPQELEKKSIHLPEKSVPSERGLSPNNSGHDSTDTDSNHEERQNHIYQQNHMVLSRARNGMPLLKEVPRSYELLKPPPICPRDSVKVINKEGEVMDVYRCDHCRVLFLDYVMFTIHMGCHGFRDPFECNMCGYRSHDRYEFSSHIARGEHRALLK
UniProt O09106: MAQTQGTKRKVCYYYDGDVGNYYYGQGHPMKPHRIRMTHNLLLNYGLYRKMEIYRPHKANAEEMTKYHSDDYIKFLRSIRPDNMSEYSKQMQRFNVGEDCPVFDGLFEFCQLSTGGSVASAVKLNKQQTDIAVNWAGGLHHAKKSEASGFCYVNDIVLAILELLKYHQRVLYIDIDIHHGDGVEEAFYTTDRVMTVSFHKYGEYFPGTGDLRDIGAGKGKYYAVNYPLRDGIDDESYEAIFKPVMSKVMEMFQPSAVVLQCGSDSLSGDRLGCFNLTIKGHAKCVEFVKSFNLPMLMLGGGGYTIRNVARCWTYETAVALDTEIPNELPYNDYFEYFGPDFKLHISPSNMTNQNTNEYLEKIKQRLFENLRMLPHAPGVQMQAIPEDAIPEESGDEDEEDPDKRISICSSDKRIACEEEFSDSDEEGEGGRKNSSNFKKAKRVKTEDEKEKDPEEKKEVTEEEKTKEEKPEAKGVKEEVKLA
UniProt Q13422: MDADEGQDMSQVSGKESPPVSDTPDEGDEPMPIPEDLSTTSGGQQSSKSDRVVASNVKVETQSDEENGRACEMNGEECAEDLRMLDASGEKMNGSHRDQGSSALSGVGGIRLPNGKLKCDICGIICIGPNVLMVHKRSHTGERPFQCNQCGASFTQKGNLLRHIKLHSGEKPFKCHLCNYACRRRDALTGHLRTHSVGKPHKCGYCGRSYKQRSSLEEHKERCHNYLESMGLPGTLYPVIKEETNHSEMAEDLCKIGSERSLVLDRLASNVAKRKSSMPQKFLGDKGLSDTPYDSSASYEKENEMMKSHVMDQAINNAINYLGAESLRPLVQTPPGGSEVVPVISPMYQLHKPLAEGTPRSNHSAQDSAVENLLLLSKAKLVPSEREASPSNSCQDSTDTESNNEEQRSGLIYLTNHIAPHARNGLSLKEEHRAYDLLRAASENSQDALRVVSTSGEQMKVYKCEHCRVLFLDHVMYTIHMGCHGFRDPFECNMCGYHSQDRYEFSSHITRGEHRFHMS

Columns and labels:
Flag-tagged WT YTHDF2 = target: T1, Flag-tagged WT YTHDF2 (UniProt Q9Y5A9); assay: proximity ligation
T1 sequence: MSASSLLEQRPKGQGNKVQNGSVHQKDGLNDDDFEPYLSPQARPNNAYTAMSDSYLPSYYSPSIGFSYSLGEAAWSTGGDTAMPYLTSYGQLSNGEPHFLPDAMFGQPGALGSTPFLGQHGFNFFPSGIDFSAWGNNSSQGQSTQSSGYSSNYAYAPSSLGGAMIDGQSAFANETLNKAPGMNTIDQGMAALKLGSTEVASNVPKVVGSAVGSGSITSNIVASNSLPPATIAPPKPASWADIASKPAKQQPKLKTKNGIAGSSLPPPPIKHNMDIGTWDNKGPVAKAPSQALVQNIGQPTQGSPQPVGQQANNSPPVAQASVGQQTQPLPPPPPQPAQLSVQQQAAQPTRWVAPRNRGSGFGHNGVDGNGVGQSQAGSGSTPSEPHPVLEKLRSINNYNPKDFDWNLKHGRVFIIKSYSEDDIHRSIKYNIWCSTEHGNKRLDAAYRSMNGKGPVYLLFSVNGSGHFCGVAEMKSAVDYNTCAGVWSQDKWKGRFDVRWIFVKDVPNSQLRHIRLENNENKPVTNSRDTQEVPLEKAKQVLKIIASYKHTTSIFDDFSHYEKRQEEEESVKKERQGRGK

[1] = target: T2, YTHDF2 (human, endogenous) (human (endogenous in human CD8 T cells and Jurkat)) (UniProt Q9Y5A9); assay: proximity ligation
T2 sequence: T1 sequence

[2] = target: T3, YTHDF2 (mouse, endogenous in CD8 T cells) (mouse (endogenous in mouse CD8 T cells)) (UniProt Q91YT7); assay: co-IP
T3 sequence: T1 sequence with N202S, N224S

[3] = target: T3, YTHDF2 (mouse, endogenous in CD8 T cells) (mouse (endogenous in mouse CD8 T cells)); assay: proximity ligation
[4] = target: Aiolos (IKZF3) (mouse, endogenous in CD8 T cells) (mouse (endogenous in mouse CD8 T cells)) (UniProt O08900); assay: proximity ligation
[5] = target: Ikaros (IKZF1) (mouse, endogenous in CD8 T cells) (mouse (endogenous in mouse CD8 T cells)) (UniProt Q03267); assay: proximity ligation

Substance	binding [2]	binding [3]	binding [1]	also measured
Aiolos (IKZF3) (human, endogenous) (from UniProt Q9UKT9 1-509)	–	–	binds	binding (Flag-tagged WT YTHDF2): binds
Aiolos (IKZF3) (mouse, endogenous in CD8 T cells) (from UniProt O08900 1-507)	binds	binds	–	–
HDAC1 (mouse, endogenous in CD8 T cells) (from UniProt O09106 1-482) (enzyme)	–	–	–	binding [4]: binds; binding [5]: binds
Ikaros (IKZF1) (human, endogenous) (from UniProt Q13422 1-519)	–	–	binds	–
Ikaros (IKZF1) (mouse, endogenous in CD8 T cells) (from UniProt Q03267 1-517)	binds	binds	–	–
